Source: PubChem BioAssay AID652272 (Drosophila RNAi Screening Center, 2013)
Aim: 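Genes whose knock-down decreases or increases Hedgehog reporter output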 (primary screen). System: Drosophila clone 8 (Cl8) cells. Knock-down reagent: long dsRNA against Drosophila genes. Measured: 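Firefly light from a Hedgehog-responsive ptc promoter reporter and Renilla reference light, both read on a plate reader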. Reading the numbers: firefly Hh reporter signal: higher = more ptc reporter light; Renilla reference signal: higher = more Renilla control light. Hit rule: 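Hit when the z-score averaged over two replicates is under -2 or over +3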. Meaning of the calls: active = hit: reporter lowered or raised; inactive = not a hit.
The deposit covers about 21,000 reagents; shown is an unselected part of those with a known target gene and a result. In the full data, 503 (2.4%) are marked active. 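Raw plate light values, not normalised; calls rest on replicate z-scores that were not deposited; hits include reporter decreases as well as increases.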 A number with no mark means an inactive call. A plus sign joins genes that one reagent is predicted to hit. Not stated in the record: the amount of reagent, the time to read-out.

| gene knocked down | amplicon | firefly Hh reporter signal, replicate 1 | firefly Hh reporter signal, replicate 2 | firefly Hh reporter signal, replicate 3 | Renilla reference signal, replicate 1 | Renilla reference signal, replicate 2 |
| --- | --- | --- | --- | --- | --- | --- |
| CG4467 | DRSC15585 | 5.92e5 | 1.20e5 | – | 27248 | 4128 |
| CG14073 | DRSC10078 | 1.12e5 | – | – | 3776 | 2258 |
| Tnpo-SR (Transportin-Serine/Arginine rich) | DRSC00546 | 1.07e5 | 73149 | – | 4667 | 3445 |
| CG10674 | DRSC09775 | 70556 | 62048 | – | 6929 | 4743 |
| CG15657 | DRSC04248 | 71270 | 93298 | – | 1461 | 7669 |
| CG14427 | DRSC17921 | 93778 | 2.46e5 | – | 3512 | 10029 |
| U3-55K (U3 small nuclear riboprotein factor 55K) | DRSC05982 | 73969 | 42935 | – | 2541 | 3692 |
| CdGAPr (Cd GTPase activating protein-related) | DRSC03289 | 51853 | 67465 | – | 960 | 6057 |
| Cpr65Ax2 + Cpr65Ax1 | DRSC10341 | 89820 | 77526 | – | 10323 | 5585 |
| Cpr65Ax2 + Cpr65Ax1 | DRSC10344 | 75776 | 63480 | – | 6947 | 4944 |
| hppy (happyhour) | DRSC07014 | 64935 | 71544 | – | 960 | 5127 |
| hppy (happyhour) | DRSC07015 | 74355 | 88493 | – | 1200 | 6156 |
| hppy (happyhour) | DRSC07016 | 48704 | 58646 | – | 864 | 3288 |
| eg (eagle) | DRSC11885 | 88038 | 90586 | – | 2901 | 5174 |
| Ip259 (Intronic Protein 259) | DRSC03352 | 52375 | 30045 | – | 2954 | 1890 |
| Alr (Augmenter of liver regeneration) | DRSC19469 | 71381 | 2.88e5 | – | 902 | 11749 |
| Trc8 (TRC8 ring finger protein) | DRSC15437 | 96874 | 99738 | – | 2658 | 2726 |
| Fbp2 (Fat body protein 2) | DRSC03327 | 67160 | 58737 | – | 3067 | 2227 |
| CG15293 | DRSC01919 | 1.30e5 | 50345 | – | 3840 | 4774 |

Sorted by “Renilla reference signal, replicate 1” (descending): 6 of the entries above
| gene knocked down | amplicon | firefly Hh reporter signal, replicate 1 | firefly Hh reporter signal, replicate 2 | firefly Hh reporter signal, replicate 3 | Renilla reference signal, replicate 1 | Renilla reference signal, replicate 2 |
| --- | --- | --- | --- | --- | --- | --- |
| CG10674 | DRSC09775 | 70556 | 62048 | – | 6929 | 4743 |
| Tnpo-SR (Transportin-Serine/Arginine rich) | DRSC00546 | 1.07e5 | 73149 | – | 4667 | 3445 |
| CG14427 | DRSC17921 | 93778 | 2.46e5 | – | 3512 | 10029 |
| U3-55K (U3 small nuclear riboprotein factor 55K) | DRSC05982 | 73969 | 42935 | – | 2541 | 3692 |
| CG15657 | DRSC04248 | 71270 | 93298 | – | 1461 | 7669 |
| CdGAPr (Cd GTPase activating protein-related) | DRSC03289 | 51853 | 67465 | – | 960 | 6057 |

Continued:
| gene knocked down | amplicon | firefly Hh reporter signal, replicate 1 | firefly Hh reporter signal, replicate 2 | firefly Hh reporter signal, replicate 3 | Renilla reference signal, replicate 1 | Renilla reference signal, replicate 2 |
| --- | --- | --- | --- | --- | --- | --- |
| Mrp4 (Multidrug resistance protein 4) | DRSC14931 | 1.22e5 | 1.80e5 | – | 3575 | 8768 |
| CG2961 | DRSC18246 | 66816 | 1.50e5 | – | 2145 | 5354 |
| Or65a (Odorant receptor 65a) | DRSC08808 | 93184 | 1.70e5 | – | 2889 | 7600 |
| tow (target of wingless) | DRSC10192 | 9841 | 8929 | – | 1623 | 816 |
| CG18095 | DRSC01948 | 1.61e5 | 63648 | – | 4176 | 5488 |
| CG3634 | DRSC11747 | 93719 | 1.04e5 | – | 2981 | 2594 |
| CG17344 | DRSC02607 | 81626 | 59813 | – | 1953 | 5552 |
| CG8777 | DRSC07263 | 63852 | 47227 | – | 2523 | 1795 |
| CG10862 | DRSC08170 | 80528 | 44264 | – | 2256 | 2788 |
| fest (wurstfest) | DRSC07349 | 45059 | 45472 | – | 1324 | 3753 |
| CG42355 | DRSC07967 | 66288 (active) | 1.24e5 | – | 2640 | 7366 |
| CG16879 (retired record) | DRSC01918 | 1.88e5 | 8.94e5 | 85200 | 4825 | 49424 |
| Lcp65Ag3 + Lcp65Ag2 + Lcp65Ag1 | DRSC11214 | 43755 | 47165 | – | 5616 | 4664 |
| Lcp65Ag3 + Lcp65Ag2 + Lcp65Ag1 | DRSC11215 | 41277 | 57628 | – | 5034 | 5008 |
| Pi4KIIIalpha (Phosphatidylinositol 4-kinase III alpha) | DRSC18655 | 60086 | 1.84e5 | – | 1632 | 6293 |
| CG12914 | DRSC06229 | 85947 | 55765 | – | 1929 | 5127 |
| CG33255 (retired record) + hpRNA:CR32205 + CR42838 | DRSC09611 | 1.92e5 | – | – | 5195 | – |
| CG17129 | DRSC08508 | 1.05e5 | 51079 | – | 4432 | 1196 |
| CG14260 | DRSC14755 | 72634 | 1.20e5 | – | 2768 | 3908 |
| Brca2 (BRCA2, DNA repair associated) | DRSC04219 | 73248 | 53218 | – | 1196 | 5320 |
| Brca2 (BRCA2, DNA repair associated) | DRSC04220 | 75544 | 58707 | – | 1511 | 5924 |
| if (inflated) | DRSC20341 | 83675 | 3.04e5 | – | 3149 | 11408 |
| lncRNA:CR43632 (long non-coding RNA:CR43632) | DRSC13730 | 40368 | 1.88e5 | – | 11293 | 4978 |
| CG14126 (retired record) | DRSC10130 | 45761 | 55671 | 69778 | 4483 | 5004 |
| flfl (falafel) | DRSC16474 | 1.58e5 | 1.03e5 | – | 5261 | 3947 |
| mey (morpheyus) | DRSC14468 | 1.21e5 | 64982 | – | 2744 | 2358 |
| Oatp33Eb (Organic anion transporting polypeptide 33Eb) | DRSC02955 | 1.53e5 | 80279 | – | 3847 | 7264 |
| CG34334 | DRSC20643 | 55168 | 1.83e5 | – | 1773 | 7440 |
| ARY (retired record) | DRSC20867 | 6.92e5 | 2.47e5 | – | 42373 | 6584 |
| CG5554 | DRSC04513 | 69808 | 58697 | – | 1640 | 4955 |
| CG34155 | DRSC13991 | 5.20e5 | 1.95e5 | – | 26468 | 3773 |
| Prosbeta4R2 (Proteasome beta4 subunit-related 2) | DRSC00503 | 84832 | 58517 | – | 3724 | 2573 |
| Nup93-1 (Nucleoporin 93kD-1) | DRSC19344 | 57738 | 45091 | – | 1456 | 1203 |
| CG15473 | DRSC18056 | 65062 | 2.38e5 | – | 2282 | 9417 |
| Rpt5 (Regulatory particle triple-A ATPase 5) | DRSC16842 | 47446 | 23533 | – | 4611 | 855 |
| CG10597 | DRSC19357 | 1.25e5 | 5.76e5 | 2.53e5 | 4134 | 4458 |
| Rdh1 (Retinol dehydrogenase 1) | DRSC06812 | 1.22e5 | 91156 | – | 4480 | 3040 |
| CG7065 | DRSC18420 | 1.49e5 | 82445 | – | 2995 | 1862 |
